Laboratory results as given in patent US6410782B1, “Diphosphonic acid salts for the treatment of osteoporosis” (Geange Ltd., priority 1997, dated 2002).
Counter-ions that a name gives are not always drawn.

Test system: mice
Conditions: mouse, in vivo, po, 50 mg/kg

NCCCC(O)(P(=O)(O)O)P(=O)(O)O [alendronate trometamine, alendronate trometamine salt]
onset of apparent toxic symptoms: did not cause the onset of apparent toxic symptoms
